# Test results from the supplement of paper PMC8728848.
# The other results are listed elsewhere or left out.
# B1: SspB C123 (Streptococcus gordonii), Q54186 (protein)
# chain: MAHFHYSSLLAQPQINKEIKNEDGVDIDRTLVAKQSIGKFELKTEALTAGRPKTTSFVLVDPLPTGYKFDLDATKAASTGFDTTYDEASHTVTFKATDETLATYNADLTKPVETLHPTVVGRVLNDGATYTNNFTLTVNDAYGIKSNVVRVTTPGKPNDPDNPNNNYIKPTKVNKNKEGLNIDGKEVLAGSTNYYELTWDLDQYKGDKSSKEAIQNGFYYVDDYPEEALDVRPDLVKVADEKGNQVSGVSVQQYDSLEAAPKKVQDLLKKANITVKGAFQLFSADNPEEFYKQYVSTGTSLVITDPMTVKSEFGKTGGKYENKAYQIDFGNGYATEVVVNNVPKITPKKDVTVSLDPTSENLDGQTVQLYQTFNYRLIGGFIPQNHSEELEDYSFVDDYDQAGDQYTGNYKTFSSLNLTMKDGSVIKAGTDLTSQTTAETDATNGIVTVRFKEDFLQKISLDSPFQAETYLQMRRIAIGTFENTYVNTVNKVAYASAAALEHHHHHH
# Legend:
# Test in all cases: glycan array binding signal (z-score within array); higher = stronger binding
# Details in all cases: glycan notation: IUPAC condensed, linker removed
# [1] = biological target: GlcNAc(b1-4)GlcNAc(b1-4)GlcNAc(b1-4)GlcNAc(b1-4)GlcNAc(b1-4)GlcNAc
# Outline: (§1)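 Glycan array binding is given as a within-array Z-score, which can be read as non-binding when negative. The arrays, 3228 of them, came from the Consortium for Functional Glycomics database and were retained only where the protein sequence was available. Z-scores were averaged across arrays of the same protein sequence at different concentrations or buffers and across linkers.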
# [2] = biological target: GlcNAc(b1-4)[GlcNAc(b1-6)]GalNAc
# Outline: as §1
# [3] = biological target: GlcNAc(b1-6)Gal(b1-4)GlcNAc
# Outline: as §1
# GlcNAc(b1-6)GalNAc = biological target: GlcNAc(b1-6)GalNAc
# Outline: as §1
# [4] = biological target: GlcNAc6S(b1-3)Gal(b1-4)GlcNAc
# Outline: as §1
# Kdn(a2-3)Gal(b1-3)GalNAc = biological target: Kdn(a2-3)Gal(b1-3)GalNAc
# Outline: as §1
# Kdn(a2-3)Gal(b1-3)GlcNAc = biological target: Kdn(a2-3)Gal(b1-3)GlcNAc
# Outline: as §1
# Kdn(a2-3)Gal(b1-4)Glc = biological target: Kdn(a2-3)Gal(b1-4)Glc
# Outline: as §1
# Kdn(a2-3)Gal(b1-4)GlcNAc = biological target: Kdn(a2-3)Gal(b1-4)GlcNAc
# Outline: as §1
# [5] = biological target: Kdn(a2-3)Gal(b1-4)[Fuc(a1-3)]GlcNAc
# Outline: as §1
# Kdn(a2-6)Gal(b1-4)GlcNAc = biological target: Kdn(a2-6)Gal(b1-4)GlcNAc
# Outline: as §1
# [6] = biological target: Man(a1-2)Man(a1-2)Man(a1-3)Man
# Outline: as §1
# [7] = biological target: Man(a1-2)Man(a1-2)Man(a1-6)[Man(a1-3)]Man
# Outline: as §1
# Man(a1-2)Man(a1-3)Man = biological target: Man(a1-2)Man(a1-3)Man
# Outline: as §1
# [8] = biological target: Man(a1-2)Man(a1-3)[Man(a1-2)Man(a1-6)]Man
# Outline: as §1
# [9] = biological target: Man(a1-2)Man(a1-3)[Man(a1-2)Man(a1-6)]Man(a1-6)[Man(a1-2)Man(a1-2)Man(a1-3)]Man
# Outline: as §1
# [10] = biological target: Man(a1-2)Man(a1-3)[Man(a1-2)Man(a1-6)]Man(a1-6)[Man(a1-2)Man(a1-2)Man(a1-3)]Man(b1-4)GlcNAc(b1-4)GlcNAc
# Outline: as §1
# [11] = biological target: Man(a1-2)Man(a1-3)[Man(a1-6)]Man(a1-6)[Man(a1-2)Man(a1-3)]Man(b1-4)GlcNAc(b1-4)GlcNAc
# Outline: as §1
# [12] = biological target: Man(a1-2)Man(a1-6)[Man(a1-3)]Man(a1-6)[Man(a1-2)Man(a1-2)Man(a1-3)]Man
# Outline: as §1
# [13] = biological target: Man(a1-2)Man(a1-6)[Man(a1-3)]Man(a1-6)[Man(a1-2)Man(a1-2)Man(a1-3)]Man(b1-4)GlcNAc(b1-4)GlcNAc
# Outline: as §1
# Man(a1-3)[Man(a1-6)]Man = biological target: Man(a1-3)[Man(a1-6)]Man
# Outline: as §1
# [14] = biological target: Man(a1-3)[Man(a1-6)]Man(a1-6)[Man(a1-2)Man(a1-3)]Man(b1-4)GlcNAc(b1-4)GlcNAc
# Outline: as §1
# [15] = biological target: Man(a1-3)[Man(a1-6)]Man(a1-6)[Man(a1-3)]Man
# Outline: as §1
# [16] = biological target: Man(a1-3)[Man(a1-6)]Man(a1-6)[Man(a1-3)]Man(b1-4)GlcNAc(b1-4)GlcNAc
# Outline: as §1
# [17] = biological target: Man(a1-3)[Man(a1-6)]Man(b1-4)GlcNAc(b1-4)GlcNAc
# Outline: as §1
# [18] = biological target: Man(a1-3)[Man(a1-6)]Man(b1-4)GlcNAc(b1-4)[Fuc(a1-6)]GlcNAc
# Outline: as §1
# Man(a1-6)Man = biological target: Man(a1-6)Man
# Outline: as §1
# Man(b1-4)GlcNAc = biological target: Man(b1-4)GlcNAc
# Outline: as §1
# MurNAc(b1-4)GlcNAc = biological target: MurNAc(b1-4)GlcNAc
# Outline: as §1
# Neu5Ac(a2-3)Gal = biological target: Neu5Ac(a2-3)Gal
# Outline: as §1
# [19] = biological target: Neu5Ac(a2-3)Gal(b1-3)GalNAc
# Outline: as §1
# [20] = biological target: Neu5Ac(a2-3)Gal(b1-3)GalNAc(b1-3)Gal(a1-4)Gal(b1-4)Glc
# Outline: as §1
# [21] = biological target: Neu5Ac(a2-3)Gal(b1-3)GalNAc(b1-4)[Neu5Ac(a2-3)]Gal(b1-4)Glc
# Outline: as §1
# [22] = biological target: Neu5Ac(a2-3)Gal(b1-3)GalNAc(b1-4)[Neu5Ac(a2-8)Neu5Ac(a2-3)]Gal(b1-4)Glc
# Outline: as §1
# [23] = biological target: Neu5Ac(a2-3)Gal(b1-3)GalNAc6S
# Outline: as §1
# [24] = biological target: Neu5Ac(a2-3)Gal(b1-3)GlcNAc
# Outline: as §1
# [25] = biological target: Neu5Ac(a2-3)Gal(b1-3)GlcNAc(b1-2)Man
# Outline: as §1
# [26] = biological target: Neu5Ac(a2-3)Gal(b1-3)GlcNAc(b1-2)Man(a1-3)[GlcNAc(b1-4)][Neu5Ac(a2-3)Gal(b1-3)GlcNAc(b1-2)Man(a1-6)]Man(b1-4)GlcNAc(b1-4)GlcNAc
# Outline: as §1
# [27] = biological target: Neu5Ac(a2-3)Gal(b1-3)GlcNAc(b1-2)Man(a1-3)[Neu5Ac(a2-3)Gal(b1-3)GlcNAc(b1-2)Man(a1-6)]Man(b1-4)GlcNAc(b1-4)GlcNAc
# Outline: as §1
# [28] = biological target: Neu5Ac(a2-3)Gal(b1-3)GlcNAc(b1-3)Gal(b1-3)GlcNAc
# Outline: as §1
# [29] = biological target: Neu5Ac(a2-3)Gal(b1-3)GlcNAc(b1-3)Gal(b1-4)GlcNAc
# Outline: as §1
# [30] = biological target: Neu5Ac(a2-3)Gal(b1-3)GlcNAc(b1-3)GalNAc
# Outline: as §1
# [31] = biological target: Neu5Ac(a2-3)Gal(b1-3)GlcNAc(b1-4)Gal(b1-4)Glc
# Outline: as §1
# [32] = biological target: Neu5Ac(a2-3)Gal(b1-3)GlcNAc(b1-6)GalNAc
# Outline: as §1
# [33] = biological target: Neu5Ac(a2-3)Gal(b1-3)GlcNAc6S
# Outline: as §1
binder,measurement,setting,value
B1,glycan array binding signal (z-score),[1],-0.842
same,glycan array binding signal (z-score),[2],-0.264
same,glycan array binding signal (z-score),[3],-0.895
same,glycan array binding signal (z-score),GlcNAc(b1-6)GalNAc,-0.398
same,glycan array binding signal (z-score),[4],-0.867
same,glycan array binding signal (z-score),Kdn(a2-3)Gal(b1-3)GalNAc,0.842
same,glycan array binding signal (z-score),Kdn(a2-3)Gal(b1-3)GlcNAc,1.33
same,glycan array binding signal (z-score),Kdn(a2-3)Gal(b1-4)Glc,-1.06
same,glycan array binding signal (z-score),Kdn(a2-3)Gal(b1-4)GlcNAc,0.864
same,glycan array binding signal (z-score),[5],-0.919
same,glycan array binding signal (z-score),Kdn(a2-6)Gal(b1-4)GlcNAc,1.04
same,glycan array binding signal (z-score),[6],-0.657
same,glycan array binding signal (z-score),[7],-0.291
same,glycan array binding signal (z-score),Man(a1-2)Man(a1-3)Man,-0.883
same,glycan array binding signal (z-score),[8],-0.555
same,glycan array binding signal (z-score),[9],-0.508
same,glycan array binding signal (z-score),[10],-1.14
same,glycan array binding signal (z-score),[11],-0.426
same,glycan array binding signal (z-score),[12],-0.339
same,glycan array binding signal (z-score),[13],-1.18
same,glycan array binding signal (z-score),Man(a1-3)[Man(a1-6)]Man,0.367
same,glycan array binding signal (z-score),[14],-0.806
same,glycan array binding signal (z-score),[15],-0.537
same,glycan array binding signal (z-score),[16],-0.78
same,glycan array binding signal (z-score),[17],0.503
same,glycan array binding signal (z-score),[18],1.39
same,glycan array binding signal (z-score),Man(a1-6)Man,3.13
same,glycan array binding signal (z-score),Man(b1-4)GlcNAc,-1.2
same,glycan array binding signal (z-score),MurNAc(b1-4)GlcNAc,-1.41
same,glycan array binding signal (z-score),Neu5Ac(a2-3)Gal,-0.965
same,glycan array binding signal (z-score),[19],-0.687
same,glycan array binding signal (z-score),[20],-0.945
same,glycan array binding signal (z-score),[21],0.274
same,glycan array binding signal (z-score),[22],-0.494
same,glycan array binding signal (z-score),[23],-1.23
same,glycan array binding signal (z-score),[24],-0.096
same,glycan array binding signal (z-score),[25],0.771
same,glycan array binding signal (z-score),[26],0.255
same,glycan array binding signal (z-score),[27],0.359
same,glycan array binding signal (z-score),[28],-0.881
same,glycan array binding signal (z-score),[29],-0.583
same,glycan array binding signal (z-score),[30],1.75
same,glycan array binding signal (z-score),[31],-0.519
same,glycan array binding signal (z-score),[32],-0.458
same,glycan array binding signal (z-score),[33],-0.631
